This is one part of the list.

In this test the target is T1, OsSMF1 (Oryza sativa, UniProt Q6ZLB0 1-436).
T1 sequence: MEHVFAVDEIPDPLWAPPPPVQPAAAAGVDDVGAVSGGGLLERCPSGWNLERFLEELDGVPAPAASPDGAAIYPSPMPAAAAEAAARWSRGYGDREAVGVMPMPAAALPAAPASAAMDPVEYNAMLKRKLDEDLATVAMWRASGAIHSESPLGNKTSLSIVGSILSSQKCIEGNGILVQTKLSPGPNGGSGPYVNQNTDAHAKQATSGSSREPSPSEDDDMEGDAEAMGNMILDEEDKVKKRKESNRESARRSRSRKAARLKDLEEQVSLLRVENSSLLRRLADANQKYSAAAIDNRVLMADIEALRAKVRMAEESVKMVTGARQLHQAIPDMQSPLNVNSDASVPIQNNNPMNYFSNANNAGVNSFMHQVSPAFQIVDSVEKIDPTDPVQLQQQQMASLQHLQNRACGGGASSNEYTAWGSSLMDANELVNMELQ
Nature of the test: protein-binding microarray (RPBM); PBS, 2% BSA, 51.3 ng/ul salmon testes DNA, 50 uM zinc acetate, 200 nM TF, 25 C, 1 h; high values mean tight binding. Conditions: protein: recombinant; tags: N-terminal polyhistidine and DsRed monomer fusion (pET32a); chain copies: 2; label: CyDye5-dUTP incorporated in the synthesized complementary strand; 3' TTTTT single-stranded linker to array surface; dsDNA, one strand shown. The essentials:
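Transcription factors were each fused at the N-terminus to a polyhistidine tag plus DsRed and expressed in E. coli BL21-CodonPlus before Ni–NTA purification. Binding to a double-stranded custom Agilent array was carried out with 200 nM protein at 25 °C for 1 h in PBS, 2% BSA, salmon testes DNA and 50 µM zinc acetate. The binding signal is per-feature fluorescence intensity, in arbitrary units, on an Axon 4000B scanner.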
Regarding “GATCAATTTGAGAACGAGAGAGAGTCGGCGTGGATCTCGACGGAGTCACCTAGTGCAG”, the binding signal was 3330 fluorescence intensity (a.u.).

On to “CGTCAGGCCGAATTTGATGACGCGGACGATGATGGAAGCTCGGAGTCACCTAGTGCAG”, for which the binding signal is 12200 fluorescence intensity (a.u.).

With “TGTACTGAGAATGTGCATGCTGACCACTCATTTCTCATCCCGGAGTCACCTAGTGCAG”, the binding signal was 3330 fluorescence intensity (a.u.).

For “GGCACCAAATCACACAGAAAAGCTAGCCGACGTGGAGAGCCGGAGTCACCTAGTGCAG”, the binding signal was 7350 fluorescence intensity (a.u.).

Consider “TACTTAGCTAGCTAATCGCGTTGCTCTTTCTCGTACTATACGGAGTCACCTAGTGCAG”, for which the binding signal was 20400 fluorescence intensity (a.u.).

Turning to “CAAAACACATCCATCATCCATTTATAAAATTACCACTCCCCGGAGTCACCTAGTGCAG”, the binding signal is 3340 fluorescence intensity (a.u.).

With “TGTTCTGTTCTTGTCCTTTGTGAGCACTAGTTTGAGCTGTCGGAGTCACCTAGTGCAG”, the binding signal is 3240 fluorescence intensity (a.u.).

For “GCATTGCATGACGAATGATGTGGAGACCAAAAGTAGTACTCGGAGTCACCTAGTGCAG”, the binding signal was 4280 fluorescence intensity (a.u.).

Regarding “ACGCATGGATCCACGTGACGTCACGCCACGTCATCCACCACGGAGTCACCTAGTGCAG”, the binding signal was 60800 fluorescence intensity (a.u.).

“GGTCCCACCTCTCATACACACATAATATATTGAAGTCCATCGGAGTCACCTAGTGCAG”: the binding signal was 3580 fluorescence intensity (a.u.).

As for “TGGTTCTTATCCATTCCATCAGTTGACTGTCAATCTTTCACGGAGTCACCTAGTGCAG”, the binding signal is 3270 fluorescence intensity (a.u.).

Take “GCGACTGCTTCCTGTTTGTCCGCAACAGCTCGCCTTCCTCCGGAGTCACCTAGTGCAG”: the binding signal is 3230 fluorescence intensity (a.u.).

Regarding “GCTGAGCTGAGCTGATATGATCAACACAGTGCAGACTTGGCGGAGTCACCTAGTGCAG”, the binding signal is 3710 fluorescence intensity (a.u.).

As to “CCTGCAATTCCACATCATGCTGTCATTTGGCATGTTCCATCGGAGTCACCTAGTGCAG”, the binding signal was 8850 fluorescence intensity (a.u.).

Turning to “ACTGCGGGATAACTCATCTTACAGGAACACGTGGTTGAGACGGAGTCACCTAGTGCAG”, the binding signal is 4280 fluorescence intensity (a.u.).

Turning to “CCAGAGAGGTGTTTTCATAGTCATCTCCGAATATTTGCCACGGAGTCACCTAGTGCAG”, the binding signal was 4650 fluorescence intensity (a.u.).

For the sequence “CATCGATGAGCTGCTTGACCGCCACCTCGCCAAGAAGTCCCGGAGTCACCTAGTGCAG”, the binding signal is 4030 fluorescence intensity (a.u.).

As for “AAGCAAAGATTGTGAGCGCACTCTGACACAGCAGCATCTCCGGAGTCACCTAGTGCAG”, the binding signal was 6180 fluorescence intensity (a.u.).

With “CGAAGCGGTTCAGGAAGATGGAGCGGCACGTGGCTGCGACCGGAGTCACCTAGTGCAG”, the binding signal was 5240 fluorescence intensity (a.u.).

On to “ACCAGCTACCACTAGTTGTGTAGTTACGTCCATAATAAAACGGAGTCACCTAGTGCAG”, for which the binding signal is 31800 fluorescence intensity (a.u.).

In the case of “AGTTCCCAAGTCGCGCCTGTGATGATTGGTCCAAGTCATGCGGAGTCACCTAGTGCAG”, the binding signal is 3220 fluorescence intensity (a.u.).

With “CAGTAGGCAGCGGTAGCCGGCGATGACGCAACCATTAAGGCGGAGTCACCTAGTGCAG”, the binding signal was 4080 fluorescence intensity (a.u.).

For the sequence “GTTTAATATTTATAATTCGTGTCCCGATGTGACACGGCTTCGGAGTCACCTAGTGCAG”, the binding signal is 4640 fluorescence intensity (a.u.).

Take “TAATAGTTTGCCATAAATGACTCAGAACTTAATTTAGGCCCGGAGTCACCTAGTGCAG”: the binding signal is 6210 fluorescence intensity (a.u.).

Turning to “CACAACCAAAGCCCCAGTGACGTACGAGTACTCCTGATGTCGGAGTCACCTAGTGCAG”, the binding signal is 4430 fluorescence intensity (a.u.).

“GCTAGACTCGACGTAAAGTTGAGGGACGTCATGTGAACTTCGGAGTCACCTAGTGCAG”: the binding signal is 3750 fluorescence intensity (a.u.).

For “CTCGCCCGGGATATATATATATGGCGGCGGGGCCGGCGGGCGGAGTCACCTAGTGCAG”, the binding signal was 17200 fluorescence intensity (a.u.).

Regarding “GACCCACGCCTTCGGGTCCACATGTCATAGCCTATCCACCCGGAGTCACCTAGTGCAG”, the binding signal was 3550 fluorescence intensity (a.u.).

Take “TAGTATGACAACTCAATCTCTTGTCTGTGACTAGCATATCCGGAGTCACCTAGTGCAG”: the binding signal was 4310 fluorescence intensity (a.u.).

For the sequence “GAACATATTTAAATATTGTAGCAGTTTATTTGTTAGCTAGCGGAGTCACCTAGTGCAG”, the binding signal is 26400 fluorescence intensity (a.u.).

For the sequence “AACTACAGGCGCTCCTAGAAACCGACAATTTTGACGTGTGCGGAGTCACCTAGTGCAG”, the binding signal is 5060 fluorescence intensity (a.u.).

For the sequence “GTCTTCACGTGTCCATGGTCTCAGCGTCAGCGACGAGACGCGGAGTCACCTAGTGCAG”, the binding signal is 3960 fluorescence intensity (a.u.).

In the case of “TCATCTGCACGAGGGCGTGGTTGGTTCTTGCTTGTGTGAGCGGAGTCACCTAGTGCAG”, the binding signal is 3680 fluorescence intensity (a.u.).

As to “CCCATTAACGAAAAGAGCCCACGGCCTCTTCTCTTCTTTCCGGAGTCACCTAGTGCAG”, the binding signal is 3140 fluorescence intensity (a.u.).

As for “AGACAACACAAACAGTAAGTGTATCAGTGATTCAGAATGTCGGAGTCACCTAGTGCAG”, the binding signal is 3950 fluorescence intensity (a.u.).

“GCCTACGACCCGCGCTCCGACCCTGACCCGCCCTGCCTCGCGGAGTCACCTAGTGCAG”: the binding signal was 3170 fluorescence intensity (a.u.).

Regarding “GATAAATATAGGAATGTTTATAATACTAAATTAATTTAATCGGAGTCACCTAGTGCAG”, the binding signal is 28300 fluorescence intensity (a.u.).

“CGTAATAATCTAACAACAGTAAGAAAATGACGTTGCTCTGCGGAGTCACCTAGTGCAG”: the binding signal is 3660 fluorescence intensity (a.u.).

As for “GAGCCGTACTCTATCCCATAAAACAAAGTGAACAACACGTCGGAGTCACCTAGTGCAG”, the binding signal is 3270 fluorescence intensity (a.u.).

Take “ACTAACCAACTGGTACACGTTCTCAAGGAAGCGCACAACTCGGAGTCACCTAGTGCAG”: the binding signal is 4760 fluorescence intensity (a.u.).

With “TTTTGGCTGACGTGGCGCTTACGTGGTTGGTTTGACTAGACGGAGTCACCTAGTGCAG”, the binding signal was 32500 fluorescence intensity (a.u.).

For “GGGTTGAGCAACATACGTGTTTGTTGGAGAATACCCGTCTCGGAGTCACCTAGTGCAG”, the binding signal is 4410 fluorescence intensity (a.u.).

As for “CTTTTAGCATTGTCGGAGAACAGCATCAGCATCATGTCCACGGAGTCACCTAGTGCAG”, the binding signal is 4160 fluorescence intensity (a.u.).

“ATACAATTTAACATTAAGTTATTATTCACGTGTCACGGGTCGGAGTCACCTAGTGCAG”: the binding signal was 4610 fluorescence intensity (a.u.).

For the sequence “TTAAATCTGCCCACTAGACATGCCCTTGAATAGGCCGCCACGGAGTCACCTAGTGCAG”, the binding signal was 24900 fluorescence intensity (a.u.).

For “CAGCCGGCATACGTGTGCGCGGATCTAGCCGTCCAAGCCGCGGAGTCACCTAGTGCAG”, the binding signal is 4430 fluorescence intensity (a.u.).

Consider “TCAACTCTCAAGCCAAGAATTGTCAGGGACACGTAGCCATCGGAGTCACCTAGTGCAG”, for which the binding signal is 8720 fluorescence intensity (a.u.).

Turning to “TCTTATATTTGGGCCGGATCGTGCATGCGTGTCAGGGTAACGGAGTCACCTAGTGCAG”, the binding signal was 6870 fluorescence intensity (a.u.).

For “CATCCCACGTGTACACGCGCGGCTCGTCACTCCCCGTGGGCGGAGTCACCTAGTGCAG”, the binding signal was 9760 fluorescence intensity (a.u.).

Regarding “TTTTCAACCTTATATTGTCATTGTCCGTCAACTTGGCTTGCGGAGTCACCTAGTGCAG”, the binding signal is 3170 fluorescence intensity (a.u.).

In the case of “GTCTGCGGTGTGACCAACCCAAAACATGGCTTATGTGACTCGGAGTCACCTAGTGCAG”, the binding signal was 16300 fluorescence intensity (a.u.).

In the case of “GCCAGCGTGACGAGGCAGAAGCCCCATCCTTCGCGCGTGCCGGAGTCACCTAGTGCAG”, the binding signal is 8530 fluorescence intensity (a.u.).

For “CTTTTCCCAAGTCGCGACAGATGGCTTGCGTCTGCGGGTTCGGAGTCACCTAGTGCAG”, the binding signal was 4560 fluorescence intensity (a.u.).

With “GAAAATTTGAGCAAAATTTAGTTGAATTTGAACAAATATTCGGAGTCACCTAGTGCAG”, the binding signal is 6670 fluorescence intensity (a.u.).

The record behind these values is paper PMC7819943, “Rice protein-binding microarrays: a tool to detect cis-acting elements near promoter regions in rice”.
